## Library screen at single concentrations

Measurements from “University of Dundee, Small-Polar-MMV Screening Library” (2021), ChEMBL document CHEMBL3988442.

Results are given as percent effect. The controls that fix the scale are not given in the record; negative values are as filed. The compounds are a random part of those screened.

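Whole-parasite assay of Trypanosoma brucei over 72 hours; the read-out is not stated. Tested at 30 µM. The record gives no direction; compounds that gave an IC50 in retests scored well above the rest, so higher reads as stronger inhibition. Values scatter widely below zero; nearly all retest evidence comes from the higher of the two concentrations used. Of about 64,000 compounds tested this way, about 940 (1.5%) reached 50% or more in at least one test.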

| # | structure | percent effect |
|---|---|---|
| 1 | `Cc1nc2ccc(-n3ncnc3[C@@H]3CCCN3S(C)(=O)=O)cc2s1` | -34.4 |
| 2 | `CS(=O)(=O)N1CCC2(CCN(C(=O)c3cccs3)CC2)CC1` | 10.8 |
| 3 | `O=C(O)C(F)(F)F.[H][C@]12CCCN(Cc3ccc(F)cc3)[C@@]1([H])CN(C(=O)c1ccco1)C2` | 6.512 |
| 4 | `CCc1nc(CN2CCCN(c3ncnc4ccsc34)CC2)no1` | -19.8 |
| 5 | `O=C1CC(c2ccccc2Br)c2sc(N3CCOCC3)nc2N1` (centres unmarked) | -58.09 |
| 6 | `N#CCCN(CC1CC1)S(=O)(=O)c1cccc(Cl)c1` | -60.68 |
| 7 | `Cc1nc(CN2CCCn3c(nc(Cn4cncn4)cc3=O)C2)cs1.O=C(O)C(F)(F)F` | -20.65 |
| 8 | `Cc1cnc2n(c1=O)CC(C(=O)Nc1ccon1)CS2` (centres unmarked) | -0.7773 |
| 9 | `[H][C@@]12C[C@@H](c3nc(C)no3)CN(S(=O)(=O)N(C)C)[C@]1([H])CCO2` | -51.57 |
| 10 | `Cc1cc(O)n(-c2ccccc2Cl)c(=O)c1C#N` | -21.19 |
| 11 | `Cc1cnc(CNC2CCc3nc(C(C)C)nn3C2)cn1` (centres unmarked) | -19.51 |
| 12 | `Cc1ncsc1C(=O)N(C)Cc1cccc(Cl)c1` | 4.551 |
| 13 | `[H][C@@]12CN(C(C)C)C[C@]1([H])N(Cc1ccccc1OC)C(=O)O2` | -35.41 |
| 14 | `CCNC(=O)CCC(=O)NC(C)Cc1ccccc1Br` (centres unmarked) | 10.09 |
| 15 | `COCCN(C)Cc1cc(Cl)ccc1OCC(O)CN1CCCCCC1` (centres unmarked) | -49.71 |
| 16 | `Cn1c2ncccc2c(=O)n1CC(=O)Nc1ccc(F)c(F)c1` | -33.05 |
| 17 | `NC(=O)CN1CCOCC(Cc2cccc(F)c2)C1` (centres unmarked) | 19.93 |
| 18 | `CC(C)(C)OC(=O)NC(C)(C)c1noc(CN2CCCCC2)n1` | -11.64 |
| 19 | `Cc1noc(C)c1CNCC1CCN(CC(O)c2ccccc2)CC1` (centres unmarked) | 39.8 |
| 20 | `O=C(O)C(F)(F)F.[H][C@@]12CCN(C(=O)CC(C)C)CC[C@]1(C(=O)N1CCOCC1)CCN2CC` | -12.98 |
| 21 | `CCn1ncc(CN2CCc3nc(-c4cccnc4)nc(O)c3C2)c1C` | -24.62 |
| 22 | `CCCN1CCCC2(CCN(C(=O)CCCn3cncn3)C2)C1=O` (centres unmarked) | -40.03 |
| 23 | `[H][C@]12CC[C@]([H])(CN(C(=O)Cn3c(C)cc(C)nc3=O)C1)N(CCC)C2` | -8.087 |
| 24 | `O=C1CC2(CCCCC2)CC(=O)N1CC(O)COCc1ccc(Cl)cc1` (centres unmarked) | 9.595 |
| 25 | `COc1ccc(NC(=O)CN2CCS(=O)(=O)CC2)cn1` | -113.9 |
| 26 | `CCc1ncc2c(n1)CN(Cc1nnc(C(C)C)o1)CC2` | -22.67 |
| 27 | `O=C(O)[C@H]1C[C@H](C(=O)NCc2ccncc2)CN(CCC(F)(F)F)C1` | -19.73 |
| 28 | `Cc1ncsc1C(=O)NC1CCN(Cc2ccc(C(F)(F)F)cc2)CC1` | -4.112 |
| 29 | `[H][C@]12CCN(C(=O)c3ccccc3)C[C@@]1([H])OCCN(C(C)=O)C2` | -3.97 |
| 30 | `Cc1cc(CN(C)C(=O)NC2CCCN(c3ncccn3)C2)no1` (centres unmarked) | 11.33 |
| 31 | `Cc1cc(CN(C)C(C(=O)O)c2cccc(C(F)(F)F)c2)on1` (centres unmarked) | 9.15 |
| 32 | `Cc1nc(C)n(C2CCCN(C(=O)c3csc(C(C)C)n3)C2)n1` (centres unmarked) | 7.918 |
| 33 | `COc1ccc2c(c1)C(=O)CC1(CCN(Cc3ccc(F)cc3)CC1)O2` | -17.86 |
| 34 | `Cc1cc(CC(C)NC(=O)COc2ccc(F)cc2F)[nH]n1` (centres unmarked) | -58.39 |
| 35 | `[H][C@]12CC[C@]([H])(CN(S(=O)(=O)N(C)C)C1)N(C(=O)c1ccc(C)cc1O)C2` | -22.56 |
| 36 | `Cc1oc(C(=O)O)cc1S(=O)(=O)Nc1cc(F)ccc1F` | -32.89 |
| 37 | `CN1CCCC1CNC(=O)CCCOc1ccc(I)cc1` (centres unmarked) | 49.91 |
| 38 | `COCC(=O)NCc1ccc(-c2ccccc2C(=O)O)cn1` | 4.254 |
| 39 | `Cc1nc(CN(C)C2CCN(Cc3nc4ccccc4n3C)C2)no1` (centres unmarked) | 44.6 |
| 40 | `CN(Cc1n[nH]c2c1CCC2)C(=O)CCc1cc2n(n1)CCCNC2` | -50.77 |
| 41 | `Cc1cccc(C)c1OC1CN(Cc2cnc(N3CCCC3)nc2)C1` | -5.418 |
| 42 | `CCc1nc(CCNC(=O)NC2CCC(=O)N(C)C2)sc1C` (centres unmarked) | 4.276 |
| 43 | `Cc1ccc(S(=O)(=O)N(C)CC(N)=O)c(Cl)c1` | -41.3 |
| 44 | `Cc1c(Cl)ccc2ccc(NC(CO)CO)nc12` | -15.35 |
| 45 | `COc1cccc2[nH]cc(CCNC(=O)N3CCOCC3C3CC3)c12` (centres unmarked) | -8.397 |
| 46 | `COCCC(Cc1cccc(Br)c1)C(=O)O` (centres unmarked) | 3.006 |
| 47 | `CN(C)c1cccc(C(=O)NCC2(O)CCOCC2)c1` | -18.49 |
| 48 | `O=C(O)C(F)(F)F.[H][C@@]12CCN(CC(=O)N(C)C)C(=O)[C@@]1([H])CN(C1CCOCC1)C2` | -21.11 |
| 49 | `CCC(O)Cn1cc(C2=CCN(Cc3ccc(OC)cc3)CC2)cn1` (centres unmarked) | -45.14 |
| 50 | `Cc1cc(CN(Cc2cccs2)CC2CCCO2)no1` (centres unmarked) | 10.59 |
| 51 | `[H][C@@]12CS(=O)(=O)C[C@]1([H])NCCN2c1ccnc(N(C)CCCN(C)C)n1` | -3.757 |
| 52 | `COc1ccc(C(=O)N2CCCC(CNS(C)(=O)=O)C2)cc1F` (centres unmarked) | -13.94 |
| 53 | `Cc1cc(NC(=O)N2CCC[C@@H]2CO)nn1-c1cccc(Cl)c1` | -2.534 |
| 54 | `CC(C)n1cnnc1CN(C)C1CCCNC1` (centres unmarked) | -18.12 |
| 55 | `Cc1nnn2c1COC(CNCc1ccccn1)C2.O=C(O)C(F)(F)F` (centres unmarked) | -27.08 |
| 56 | `O=C(CCc1ccccc1Br)N1CC(S(=O)(=O)C2CCCCC2)C1` | 4.116 |
| 57 | `c1nc2n(n1)CC(NCc1csc(-c3ccsc3)n1)CC2` (centres unmarked) | -25.01 |
| 58 | `CNc1oc(-c2ccc(OC)c(S(=O)(=O)N3CCCCC3)c2)nc1C#N` | -24.58 |
| 59 | `Cc1cc(=O)[nH]c(=O)n1COCc1ccccc1` | -22.77 |
| 60 | `COc1cc(C(=O)NS(=O)(=O)c2cccc(C#N)c2)cc(OC)c1Br` | -18.81 |
| 61 | `CCOc1cc(CNC(=O)CNC(=O)CC2CCCCC2)ccn1` | -0.7408 |
| 62 | `CN1CCCCc2c1nc1c(c2N)CCC1.O=C(O)c1cc([N+](=O)[O-])ccc1Cl` | 13.68 |
| 63 | `CCN1CCCCC1C(=O)N1CCc2onc(-c3ccc(Cl)cc3)c2C1` (centres unmarked) | -5.597 |
| 64 | `CCOc1cccc2c1OCC(C(=O)NS(=O)(=O)c1ccc(Cl)s1)=C2` | -12.97 |
| 65 | `CC(NC(=O)Nc1nncs1)C(=O)NC1CCCC1` (centres unmarked) | -3.396 |
| 66 | `NC(=O)N1CCCC1COC(=O)c1ccc(F)cc1Br` (centres unmarked) | -1.493 |
| 67 | `Cc1nn(C)c2c(=O)n(CC(=O)NCc3ccccn3)ccc12` | -0.211 |
| 68 | `O=C(N[C@@H]1CN(Cc2ccc(F)cc2)C[C@H]1O)c1cscn1` | -31.92 |
| 69 | `Cc1ncc(CNCC2CCC(C(N)=O)CC2)n1-c1ccccc1` (centres unmarked) | -22.05 |
| 70 | `CN(C)C(=O)CN1CCC(c2nnc(Cn3cccn3)n2C2CC2)CC1` | -14.88 |
| 71 | `[H][C@@]12CS(=O)(=O)C[C@]1([H])N(C(=O)c1csc(C)n1)CCN2C(=O)C1CCC1` | -15.93 |
| 72 | `O=C(Cc1ccc(F)cc1)NCCc1ccoc1` | -9.447 |
| 73 | `COCCn1ccnc1C1CCN(c2cccc(C(=O)O)n2)CC1` | -30.79 |
| 74 | `CN(CCN1CCCC1=O)S(=O)(=O)CC1CCCC1` | -20.71 |
| 75 | `Cc1nc(C)n(CC2CCCCN2CC(=O)Nc2cc(C)on2)n1` (centres unmarked) | -4.179 |
| 76 | `O=C(O)C(F)(F)F.O=C(O)C(F)(F)F.O=C(O)C(F)(F)F.c1cc(CN2CCCC23CCCN(Cc2ccoc2)C3)ccn1` (centres unmarked) | -11.85 |
| 77 | `Cc1nnc(NC(=O)CN2CCOC(Cn3cccn3)C2)s1` (centres unmarked) | 16.26 |
| 78 | `Cc1nn(C)c(N2CCOCC2)c1CNC(C)c1cccnc1` (centres unmarked) | 26.87 |
| 79 | `Cc1cc2nc(C(C)C)cc(N[C@H](C(N)=O)C(C)C)n2n1` | -3.354 |
| 80 | `CCN1CCC(NC(=O)CN2CCc3c(nc(C4CC4)n3C)C2)CC1` | 10.27 |
| 81 | `O=C(Cc1c[nH]c2ccccc12)N1CCC(Nc2ccccc2)CC1` | -16.2 |
| 82 | `COCCNC(=O)NCc1ccc(OC(C)C)c(F)c1` | 47.27 |
| 83 | `[H][C@@]12CNC(=O)N1CCN(C(=O)c1ccc3c(c1)OCO3)C2` | -1.335 |
| 84 | `CCC(CC)(CN)NC(C)c1ccccc1` (centres unmarked) | 0.793 |
| 85 | `O=C(Cc1cccs1)NCc1ccnc(C2CCCOC2)n1` (centres unmarked) | -0.6753 |
| 86 | `CSc1cccc(CN(C)C(=O)c2ccc(C3CCCNC3)cc2)c1` (centres unmarked) | 45.3 |
| 87 | `CNc1ncc2c(n1)CN(CCc1ccc(Cl)cc1)C2=O` | 24.84 |
| 88 | `CCn1c(=O)nc(N)c2c(-c3ccc(OC)cc3)csc21` | -36.18 |
| 89 | `O=C(Cn1ncc2c(c1=O)CCCC2)Nc1cccc2[nH]ccc12` | 6.514 |
| 90 | `CC(C)C1CCCN1CCCc1nc(-c2cccs2)no1` (centres unmarked) | -8.136 |
| 91 | `COCCN1CCCC(c2nccnc2Nc2nc(C)cs2)C1` (centres unmarked) | 41.76 |
| 92 | `Cc1cnc(CN(C)C2CCN(CC(=O)Nc3c(C)n[nH]c3C)C2)o1` (centres unmarked) | -60.33 |
| 93 | `CCS(=O)(=O)N1Cc2nccn2CC(CN2CCCC2)C1` (centres unmarked) | -79.56 |

Repeated from the top, 10 entries:

- Cc1nc2ccc(-n3ncnc3[C@@H]3CCCN3S(C)(=O)=O)cc2s1 | -34.4%
- CS(=O)(=O)N1CCC2(CCN(C(=O)c3cccs3)CC2)CC1 | 10.8%
- O=C(O)C(F)(F)F.[H][C@]12CCCN(Cc3ccc(F)cc3)[C@@]1([H])CN(C(=O)c1ccco1)C2 | 6.512%
- CCc1nc(CN2CCCN(c3ncnc4ccsc34)CC2)no1 | -19.8%
- O=C1CC(c2ccccc2Br)c2sc(N3CCOCC3)nc2N1 (centres unmarked) | -58.09%
- N#CCCN(CC1CC1)S(=O)(=O)c1cccc(Cl)c1 | -60.68%
- Cc1nc(CN2CCCn3c(nc(Cn4cncn4)cc3=O)C2)cs1.O=C(O)C(F)(F)F | -20.65%
- Cc1cnc2n(c1=O)CC(C(=O)Nc1ccon1)CS2 (centres unmarked) | -0.7773%
- [H][C@@]12C[C@@H](c3nc(C)no3)CN(S(=O)(=O)N(C)C)[C@]1([H])CCO2 | -51.57%
- Cc1cc(O)n(-c2ccccc2Cl)c(=O)c1C#N | -21.19%